Measurements published in patent publication US20260209319A1.
Residue numbers refer to the chain shown, from its start. No constants are given. Whether binding was seen depends on the method and setting. Some binding calls cover weakened binding; strength is not graded here. Values belong to the binder of their own block, whether it stands above or below them.

By UniProt entry, the sequences of proteins in these tests, tags left out. Where a name states a change or a piece, a line headed by the entry shows the natural chain unless it says otherwise. Chains listed by the source or under a name are the forms on record and can include a tag or linker.
mesothelin (soluble, recombinant) (Q13421, form named): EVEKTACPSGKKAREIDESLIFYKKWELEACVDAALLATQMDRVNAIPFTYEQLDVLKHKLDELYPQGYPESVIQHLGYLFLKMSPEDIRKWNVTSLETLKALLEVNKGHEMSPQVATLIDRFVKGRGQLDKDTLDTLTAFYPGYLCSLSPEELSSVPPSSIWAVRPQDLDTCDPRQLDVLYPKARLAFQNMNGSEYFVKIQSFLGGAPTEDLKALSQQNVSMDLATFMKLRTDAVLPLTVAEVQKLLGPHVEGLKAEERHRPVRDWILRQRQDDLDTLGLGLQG

Columns and labels:
[1] = molecular target: mesothelin (soluble, recombinant) (UniProt Q13421); experiment: Octet, IgG captured on anti-human Fc (AHC) biosensor, 125 nM mesothelin, 5 min association, 5 min dissociation [con't), panel MSLN-33]
[2] = molecular target: mesothelin (soluble, recombinant) (UniProt Q13421); experiment: Octet, IgG captured on anti-human Fc (AHC) biosensor, 125 nM mesothelin, 5 min association, 5 min dissociation [con't), panel MSLN-38]
[3] = molecular target: mesothelin (soluble, recombinant) (UniProt Q13421); experiment: Octet, IgG captured on anti-human Fc (AHC) biosensor, 125 nM mesothelin, 5 min association, 5 min dissociation [con't), panel MSLN-42]
[4] = molecular target: mesothelin (soluble, recombinant) (UniProt Q13421); experiment: Octet, IgG captured on anti-human Fc (AHC) biosensor, 125 nM mesothelin, 5 min association, 5 min dissociation [con't), panel MSLN-45]
[5] = molecular target: mesothelin (soluble, recombinant) (UniProt Q13421); experiment: Octet, IgG captured on anti-human Fc (AHC) biosensor, 125 nM mesothelin, 5 min association, 5 min dissociation [con't), panel MSLN-43]
[6] = molecular target: mesothelin (soluble, recombinant) (UniProt Q13421); experiment: Octet, IgG captured on anti-human Fc (AHC) biosensor, 125 nM mesothelin, 5 min association, 5 min dissociation [con't), panel MSLN-34]
[7] = molecular target: mesothelin (soluble, recombinant) (UniProt Q13421); experiment: Octet, IgG captured on anti-human Fc (AHC) biosensor, 125 nM mesothelin, 5 min association, 5 min dissociation [con't), panel MSLN-41]
[8] = molecular target: mesothelin (soluble, recombinant) (UniProt Q13421); experiment: Octet, IgG captured on anti-human Fc (AHC) biosensor, 125 nM mesothelin, 5 min association, 5 min dissociation [con't), panel MSLN-35]
[9] = molecular target: mesothelin (soluble, recombinant) (UniProt Q13421); experiment: Octet, IgG captured on anti-human Fc (AHC) biosensor, 125 nM mesothelin, 5 min association, 5 min dissociation [con't), panel MSLN-39]
[10] = molecular target: mesothelin (soluble, recombinant) (UniProt Q13421); experiment: Octet, IgG captured on anti-human Fc (AHC) biosensor, 125 nM mesothelin, 5 min association, 5 min dissociation [con't), panel MSLN-37]

binding [2]: binds
B2: MSLN-38 (antibody, V domains shown)
VH: QVQLQESGPGLVKPSETLSLTCTVSGGSVSSRDDLWSWIRQPPGKGLEWIGYIYYSGSTNYNPSLKSRVTISVDTSKNQFSLKLSSVTAADTAVYYCAREDALTGFDIWGQGTMVTVSS
VL: DIQMTQSPSSLSASVGDRVTITCRASQSSRYYVNWYQQKPGKAPKLLIYAASSLQSGVPSRFSGSGSGTDFTLTISSLQPEDFATYYCQQSYDASYTFGGGTKVEIK

binding [4]: binds
B4: MSLN-45 (antibody, V domains shown)
VH: B2 VH with R32Y, D33H, E100D, D101N, A102V, L103F
VL: B2 VL

binding [8]: binds
B8: MSLN-35 (antibody, V domains shown)
VH: B2 VH with R32F, D33T, L35T, E100D, D101N, A102V, L103F
VL: B2 VL with S29I, R30S, Y31S, V33L, S91P

binding [9]: binds
B9: MSLN-39 IgG (antibody, V domains shown)
VH: B2 VH with R32F, D33T, L35T
VL: B2 VL

binding [10]: binds
B10: MSLN-37 (antibody, V domains shown)
VH: B2 VH with R32Y, D33H
VL: B2 VL

The next lines start with the binder.

B1: MSLN-33 (antibody, V domains shown)
VH: B2 VH with R32Y, D33H, E100D, D101N, A102V, L103F
VL: B2 VL with S29I, R30S, Y31S, V33L, S91P
binding [1]: binds

B3: MSLN-42 (antibody, V domains shown)
VH: B2 VH with E100D, D101F, A102V, T104S
VL: B2 VL
binding [3]: binds

B5: MSLN-43 (antibody, V domains shown)
VH: B2 VH with R32F, D33T, L35T, E100D, D101F, A102V, T104S
VL: B2 VL
binding [5]: binds

B6: MSLN-34 (antibody, V domains shown)
VH: B2 VH with E100D, D101N, A102V, L103F
VL: B2 VL with S29I, R30S, Y31S, V33L, S91P
binding [6]: binds

B7: MSLN-41 (antibody, V domains shown)
VH: B2 VH with R32Y, D33H, E100D, D101F, A102V, T104S
VL: B2 VL
binding [7]: binds
